# Data as given in PubChem BioAssay AID652259 (Drosophila RNAi Screening Center, 2013).
# Screen: 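Identify new Wingless signalling regulators in fly cells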 (primary screen)
# System: Drosophila clone 8 imaginal disc epithelial cells
# Knock-down reagent: long dsRNA against Drosophila genes
# Treatment: pathway stimulated by co-transfected Wingless expression plasmid
# Detection: 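Firefly luciferase from a tcf-site Wingless reporter, measured alongside co-transfected Renilla luciferase that tracks transfection; pathway stimulated by a Wingless plasmid; the firefly-to-Renilla ratio is not deposited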
# Scale: firefly reporter light: higher = more Wg reporter light, before normalisation; Renilla control light: higher = more transfected or surviving cells
# Rule for the call: 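a knock-down is a candidate when at least two out of four statistical tests show it departing from its plate mean; one test alone signals a weak candidate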
# Calls: active = candidate regulator (raises or lowers reporter); inactive = not a candidate
# The deposit covers about 22,000 reagents; shown is a random part of those that have a named target and a result. In the full data, 233 (1.1%) got an active call. 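Light values are raw, unnormalised plate reads; the ratio scores behind the reporter calls were not deposited.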 A number with no mark means an inactive call. Reagents against one gene are numbered here. Reagent sequences are not shown. Not given: the amount of reagent, the time to read-out, the dose of the treatment.
gene,dsRNA no.,"firefly reporter light, replicate 1","firefly reporter light, replicate 2","Renilla control light, replicate 1","Renilla control light, replicate 2"
rdo,1,11319,,2227,
CG17207,1,12832,,3005,
CG3699,1,29669,,16561,
CG3699,2,30944,,17261,
ChAT,1,3520,,914,
ChAT,2,15185,,3005,
ChAT,3,3.84e5,6.11e5,1.74e5,1.54e5
CG10184,1,2903,6451,1414,1328
aru,1,3429,9013,1689,3985
aru,2,5.42e5,5.03e5,1.25e5,1.52e5
IntS11,1,2500,6109,1290,2233
Rpn2,1,1465,3206,475,1273
CG15784,1,13604,,9562,
ubl,1,3771,5110,315,2058
Rrp45,1,17185,,6794,
ens,1,5240,,2706,
Nsf2,1,8.24e5,8.37e5,2.87e5,2.93e5
mu2,1,19656,,7575,
mu2,2,4.43e5,4.75e5,1.85e5,1.74e5
CR42546,1,3364,8520,818,3360
CG14292,1,11696,,1900,
Dhc62B,1,5916,,2946,
mRpL3,1,16154,,8808,
ppk30,1,5075,,2298,
CG32856,1,2685,,946,
CG12917,1,2166,5382,657,2420
alpha4GT1,1,9782,,4279,
CG13073,1,3912,,2341,
Zn72D,1,4576,,1456,
Nepl7,1,3108,9232,1536,4070

Continued; the last 3 above are carried over.
gene,dsRNA no.,"firefly reporter light, replicate 1","firefly reporter light, replicate 2","Renilla control light, replicate 1","Renilla control light, replicate 2"
CG13073,1,3912,,2341,
Zn72D,1,4576,,1456,
Nepl7,1,3108,9232,1536,4070
CG5382,1,2881,7912,1152,2283
brwl,1,15928,,4675,
brwl,2,6242,,2965,
C15,1,1958,,1396,
C15,2,33815,,7404,
GstS1,1,16433,,3245,
Doc3,1,1427,9877,1020,3305
Dic4,1,6760,,2340,
CG13998,1,2370,6397,968,1185
Mocs1,1,6381,,2440,
Sdhaf3,1,21638,,4650,
CG43188,1,29332,,15569,
Ugt303B2,1,26137,,23578,
Ugt303B2,2,5.35e5,4.88e5,2.33e5,2.46e5
epsilonCOP,1,10544,,6193,
CR43359,1,32912,,8886,
Obp46a,1,2819,7072,869,2620
CG7542,1,4028,,2400,
CG9444,1,12796,,3745,
